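The test systems are human melanoma cell lines, treated with two drugs together for 72 h and then stained and imaged. Values are the share of nuclei positive for cleaved PARP as a percentage of the same share in the DMSO control: 100 is the control level, higher means more apoptosis. Every drug was used at one fixed concentration, the higher of two screened. The file gives one value for each pair and line, without errors, so small differences may be noise. Basal and induced levels differ widely between cell lines.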 An unselected part of the screen is shown. An entry leaves out what has no value listed here. A dash means that no value is listed here.

First drug in all entries: BI-D1870, 1 µM, CC(C)CCN1c2nc(Nc3cc(F)c(O)c(F)c3)ncc2N(C)C(=O)C1C (stereo not drawn)

Compounds and concentrations:
TCS401: O=C(O)C(=O)Nc1sc2c(c1C(=O)O)CCNC2 at 8.33 µM
darinaparsin: C[As](C)SC[C@H](NC(=O)CC[C@H](N)C(=O)O)C(=O)NCC(=O)O at 2 µM
VX-702: NC(=O)c1ccc(N(C(N)=O)c2c(F)cccc2F)nc1-c1ccc(F)cc1F at 2 µM
PF-04217903: OCCn1cc(-c2cnc3nnn(Cc4ccc5ncccc5c4)c3n2)cn1 at 5 µM
STA-4783: CN(NC(=O)CC(=O)NN(C)C(=S)c1ccccc1)C(=S)c1ccccc1 at 0.03 µM

Cell line	VX-702	darinaparsin	PF-04217903	STA-4783	TCS401
LB2518-MEL	-	76.6	132	3640	73.1
A101D	223	77.1	62.7	89.6	58.3
SK-MEL-30	86.0	172	210	94.7	84.1
SK-MEL-2	-	195	139	330	123
SK-MEL-5	82.7	212	101	237	175
UACC-257	31.1	24.0	36.2	80.5	53.1
RPMI-7951	176	121	72.7	96.8	150
IST-MEL1	171	74.9	87.9	498	89.7
IPC-298	49.7	60.5	52.1	68.5	207
G-361	130	203	97.0	959	127
MZ2-MEL	-	189	44.2	48.4	226
MeWo	84.5	188	131	390	275
WM1716	65.1	186	27.6	39.2	53.9
WM3619	108	140	137	638	111
COLO 800	149	161	35.4	266	101
MEL-HO	98.5	75.7	49.8	122	26.9
WM451Lu	70.5	94.4	211	289	80.3
WM1745	-	106	89.2	224	81.7
WM3526	98.7	167	71.0	170	97.9
A2058	162	148	119	1260	99.3
SK-MEL-28	105	37.8	134	-	62.1
UACC-62	200	171	51.5	271	125
A375	72.8	69.1	43.7	66.7	32.5
C32	78.0	91.4	189	774	91.4
RVH-421	214	247	182	188	166
501mel	-	231	104	547	99.9
WM115	125	72.8	74.5	1240	104
COLO 792	108	99.3	61.9	473	111
LOX IMVI	164	123	111	139	177
COLO 829	94.9	112	159	105	126

The first 3 entries again:

- LB2518-MEL | darinaparsin: 76.6; PF-04217903: 132; STA-4783: 3640; TCS401: 73.1
- A101D | VX-702: 223; darinaparsin: 77.1; PF-04217903: 62.7; STA-4783: 89.6; TCS401: 58.3
- SK-MEL-30 | VX-702: 86.0; darinaparsin: 172; PF-04217903: 210; STA-4783: 94.7; TCS401: 84.1

Values as published with doi:10.1371/journal.pone.0140310, rounded.